Measurements taken from US20040018181A1.
These are yes or no findings as the source states them, for the method shown. Some results given as binding are weak or reduced against the parent protein; the word gives no strength.

Amino acid sequences for entries named in this document (tags omitted). A change or cut given only in a name is not applied to a line headed by its entry.
UniProt P15941: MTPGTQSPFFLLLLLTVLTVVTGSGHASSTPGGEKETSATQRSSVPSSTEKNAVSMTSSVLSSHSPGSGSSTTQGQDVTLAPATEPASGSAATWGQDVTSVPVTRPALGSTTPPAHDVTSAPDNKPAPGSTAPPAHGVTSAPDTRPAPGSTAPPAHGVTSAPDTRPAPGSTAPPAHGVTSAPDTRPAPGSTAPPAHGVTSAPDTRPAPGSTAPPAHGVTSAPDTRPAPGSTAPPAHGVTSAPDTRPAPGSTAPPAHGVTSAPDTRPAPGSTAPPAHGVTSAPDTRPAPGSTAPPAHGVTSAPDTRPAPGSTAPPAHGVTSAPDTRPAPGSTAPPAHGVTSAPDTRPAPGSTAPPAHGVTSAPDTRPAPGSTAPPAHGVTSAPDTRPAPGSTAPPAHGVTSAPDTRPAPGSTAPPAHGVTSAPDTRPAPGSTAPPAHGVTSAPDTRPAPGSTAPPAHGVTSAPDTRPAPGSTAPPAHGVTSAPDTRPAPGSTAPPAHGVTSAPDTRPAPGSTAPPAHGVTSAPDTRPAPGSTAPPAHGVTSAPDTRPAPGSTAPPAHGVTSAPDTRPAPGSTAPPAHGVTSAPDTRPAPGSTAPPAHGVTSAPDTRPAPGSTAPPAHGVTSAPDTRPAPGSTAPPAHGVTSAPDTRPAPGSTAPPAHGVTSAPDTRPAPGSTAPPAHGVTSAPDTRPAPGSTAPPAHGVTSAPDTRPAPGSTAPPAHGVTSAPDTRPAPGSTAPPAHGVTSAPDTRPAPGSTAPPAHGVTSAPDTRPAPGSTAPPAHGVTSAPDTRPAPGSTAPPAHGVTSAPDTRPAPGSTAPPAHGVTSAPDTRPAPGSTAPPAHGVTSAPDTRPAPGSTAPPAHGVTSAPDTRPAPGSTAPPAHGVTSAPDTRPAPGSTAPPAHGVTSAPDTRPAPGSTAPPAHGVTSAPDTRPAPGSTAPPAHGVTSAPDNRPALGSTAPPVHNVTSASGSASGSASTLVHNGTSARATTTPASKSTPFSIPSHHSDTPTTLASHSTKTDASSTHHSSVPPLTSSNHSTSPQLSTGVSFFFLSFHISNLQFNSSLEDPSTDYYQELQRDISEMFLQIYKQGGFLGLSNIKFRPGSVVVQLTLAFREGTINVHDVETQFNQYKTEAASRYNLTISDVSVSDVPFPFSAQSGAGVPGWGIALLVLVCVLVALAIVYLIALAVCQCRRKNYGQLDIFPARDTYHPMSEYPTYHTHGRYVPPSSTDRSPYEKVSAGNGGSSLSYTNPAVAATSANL

Molecular target: GST-MUC1/ECD fusion protein (human) (UniProt P15941)
Assay: GST-MUC1/ECD affinity adsorbate, band identified by MALDI-TOF-MS of tryptic peptides

B1: ML-1 (neuregulin 2 splice isoform 5) (ligand)
chain: CYSPSLKSVQDQAYKAPVVVEGKVQGLVPAGGSSSNSTREPPASGRVALVKVLDKWPLRSGGLQREQVISVGSCVPLERNQRYIFFLEPTEQPLVFKTAFAPLDTNGKNLKKEVGKILCTDCATRPKLKKMKSQTGQVGEKQSLKCEAAAGNPQPSYRWFKDGKELNRSRDIRIKYGNGRKNSRLQFNKVKVEDAGEYVCEAENILGKDTVRGRLYVNSVSTTLSSWSGHARKCNETAKSYCVNGGVCYYIEGINQLSCKCPNGFFGQRCLEKLPLRLYMPDPKQSVLWDTPGTGVSSSQWSTSPKPRSCTRRGS
**Q.** With B1 as the binder, how does the binding read?
**A.** Its binding is “binds”.

B2: ML-2 (neuregulin 2 splice isoform 6) (ligand)
chain: CYSPSLKSVQDQAYKAPVVVEGKVQGLVPAGGSSSNSTREPPASGRVALVKVLDKWPLRSGGLQREQVISVGSCVPLERNQRYIFFLEPTEQPLVFKTAFAPLDTNGKNLKKEVGKILCTDCATRPKLKKMKSQTGQVGEKQSLKCEAAAGNPQPSYRWFKDGKELNRSRDIRIKYGNGRKNSRLQFNKVKVEDAGEYVCEAENILGKDTVRGRLYVNSVSTTLSSWSGHARKCNETAKSYCVNGGVCYYIEGINQLSCKCPNGFFGQRCLEKLPLRLYMPDPKQSVLWDTPGTGVSSSQWSTSPSTLDLN
**Q.** For B2, which binding is on record?
**A.** Its binding is “binds”.
